Measured values from the supplement of paper PMC10735217.
Structures can show the parent of a compound that is named as a salt. The list shows a part of the results. This data set is noisy: repeats of one test often differ as much as different tests do.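 Human kidney-derived cells stably carry a construct in which eight TEAD-binding elements drive luciferase, measured by luminescence in a drug-repurposing library screen. A hit is any compound whose signal exceeds the plate mean by more than five robust Z scores.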

Test system: HEK293A TEAD-LUC reporter
Assay: TEAD-luciferase reporter activity (YAP activation), robust Z score vs plate; higher = stronger YAP/TEAD activation
Conditions: 24 h

SMILES: Cc1c(O)c(=O)ccn1C [deferiprone extended-release]
- TEAD-luciferase reporter activity (compound concentration: 2 uM): inactive: -0.141

SMILES: CC(C)C[C@H](NP(=O)(O)OCC(O)CO)C(=O)N[C@@H](Cc1c[nH]c2ccccc12)C(=O)O (some centres not stated)
- TEAD-luciferase reporter activity (compound concentration: 200 nM): inactive: -0.146
- TEAD-luciferase reporter activity (compound concentration: 2 uM): inactive: -0.604
- TEAD-luciferase reporter activity (compound concentration: 10 uM): inactive: 1.13

SMILES: Cn1c(Cn2ccc(C(F)(F)F)c(Oc3cc(Cl)cc(C#N)c3)c2=O)n[nH]c1=O
- TEAD-luciferase reporter activity (compound concentration: 200 nM): inactive: 1.22
- TEAD-luciferase reporter activity (compound concentration: 2 uM): inactive: -0.995
- TEAD-luciferase reporter activity (compound concentration: 10 uM): inactive: 2.12

SMILES: NC[C@H]1CC[C@H](C(=O)c2ccc(CCC(=O)O)cc2)CC1 [rotraxate]
- TEAD-luciferase reporter activity (compound concentration: 2 uM): inactive: 0.108

SMILES: NC[C@H]1CC[C@H](C(=O)c2ccc(CCC(=O)O)cc2)CC1
- TEAD-luciferase reporter activity (compound concentration: 200 nM): inactive: -2.49
- TEAD-luciferase reporter activity (compound concentration: 10 uM): inactive: 1.64

SMILES: CN/C(=N\c1ccc(C2=NNC(=O)CC2C)cc1)NC#N (configuration not stated) [Siguazodan]
- TEAD-luciferase reporter activity (compound concentration: 200 nM): inactive: 1.08
- TEAD-luciferase reporter activity (compound concentration: 2 uM): inactive: -0.0485
- TEAD-luciferase reporter activity (compound concentration: 10 uM): inactive: -1.95

SMILES: CC(C)n1c(/C=C/[C@@H]2C[C@@H](O)CC(=O)O2)c(-c2ccc(F)cc2)c2ccccc2c1=O
- TEAD-luciferase reporter activity (compound concentration: 200 nM): inactive: 1.59
- TEAD-luciferase reporter activity (compound concentration: 2 uM): inactive: 1.47
- TEAD-luciferase reporter activity (compound concentration: 10 uM): inactive: -1.24

SMILES: CC(=O)N[C@H](Cc1ccc2ccccc2c1)C(=O)N[C@H](Cc1ccc(Cl)cc1)C(=O)N[C@H](Cc1cccnc1)C(=O)N[C@@H](CO)C(=O)N[C@@H](Cc1ccc(O)cc1)C(=O)N[C@H](CCCNC(N)=O)C(=O)N[C@@H](CC(C)C)C(=O)N[C@@H](CCCNC(=N)N)C(=O)N1CCC[C@H]1C(=O)N[C@H](C)C(N)=O [cetrorelix acetate]
- TEAD-luciferase reporter activity (compound concentration: 200 nM): inactive: 0.0683
- TEAD-luciferase reporter activity (compound concentration: 2 uM): inactive: -1.09
- TEAD-luciferase reporter activity (compound concentration: 10 uM): inactive: -1.32

SMILES: CN(C)CCC(c1ccccc1)c1ccccn1 (configuration not stated)
- TEAD-luciferase reporter activity (compound concentration: 2 uM): inactive: -0.713

SMILES: CN(C)CCC(c1ccccc1)c1ccccn1 (configuration not stated) [Pheniramine Maleate]
- TEAD-luciferase reporter activity (compound concentration: 200 nM): inactive: -0.176
- TEAD-luciferase reporter activity (compound concentration: 10 uM): inactive: -0.442

SMILES: CC(C)C[C@@H]1NC(=O)[C@H](Cc2ccccc2)N(C)C(=O)[C@@H](CCCNC(=N)N)NC(=O)[C@@H](CCCNC(=N)N)NC(=O)[C@H](C(C)C)NC(=O)[C@H](CC(=O)O)NC1=O
- TEAD-luciferase reporter activity (compound concentration: 200 nM): inactive: -1.04
- TEAD-luciferase reporter activity (compound concentration: 2 uM): inactive: -0.625
- TEAD-luciferase reporter activity (compound concentration: 10 uM): inactive: 1.42

SMILES: C[N+](C)(CCCCCC[N+](C)(C)C1c2ccccc2-c2ccccc21)C1c2ccccc2-c2ccccc21
- TEAD-luciferase reporter activity (compound concentration: 200 nM): inactive: -0.854
- TEAD-luciferase reporter activity (compound concentration: 2 uM): inactive: -0.473
- TEAD-luciferase reporter activity (compound concentration: 10 uM): inactive: -1.83

SMILES: CCOC(=O)N1CCN(C(=O)[C@H](Cc2cccc(/C(N)=N\O)c2)NS(=O)(=O)c2c(C(C)C)cc(C(C)C)cc2C(C)C)CC1 [Upamostat]
- TEAD-luciferase reporter activity (compound concentration: 200 nM): inactive: -0.401
- TEAD-luciferase reporter activity (compound concentration: 2 uM): inactive: -0.862
- TEAD-luciferase reporter activity (compound concentration: 10 uM): inactive: 0.787

SMILES: CC1(C)CN(CCN2CCN(c3cccc(Cl)c3)C2=O)C1
- TEAD-luciferase reporter activity (compound concentration: 200 nM): inactive: -1.14
- TEAD-luciferase reporter activity (compound concentration: 2 uM): inactive: 0.0813
- TEAD-luciferase reporter activity (compound concentration: 10 uM): inactive: -0.786

SMILES: N=C(N)NCCC[C@H](NC(=O)c1ccc2ccccc2c1O)C(=O)N1CCC[C@H]1C(N)=O
- TEAD-luciferase reporter activity (compound concentration: 200 nM): inactive: -1.17
- TEAD-luciferase reporter activity (compound concentration: 2 uM): inactive: -0.617
- TEAD-luciferase reporter activity (compound concentration: 10 uM): inactive: 2.83

SMILES: CC(C)(C)C(O)/C=C/c1ccc2c(c1)OCO2 (configuration not stated) [Stiripentol]
- TEAD-luciferase reporter activity (compound concentration: 200 nM): inactive: 0.635
- TEAD-luciferase reporter activity (compound concentration: 10 uM): inactive: 0.739

SMILES: CC(C)(C)C(O)/C=C/c1ccc2c(c1)OCO2 (configuration not stated) [stiripentol]
- TEAD-luciferase reporter activity (compound concentration: 2 uM): inactive: -0.838

SMILES: CCc1ccc(Cc2ccc3c(c2)[C@]2(OC3)O[C@H](CO)[C@@H](O)[C@H](O)[C@H]2O)cc1 [Tofogliflozin hydrate]
- TEAD-luciferase reporter activity (compound concentration: 200 nM): inactive: 0.381
- TEAD-luciferase reporter activity (compound concentration: 2 uM): inactive: -0.596
- TEAD-luciferase reporter activity (compound concentration: 10 uM): inactive: -0.704

SMILES: O=c1[nH]c2c(c3nc(-c4ccccc4F)cn13)CN(Cc1cccnc1)CC2
- TEAD-luciferase reporter activity (compound concentration: 200 nM): inactive: 0.0463
- TEAD-luciferase reporter activity (compound concentration: 10 uM): inactive: -0.295

SMILES: C=CCSC[C@H](N)C(=O)O
- TEAD-luciferase reporter activity (compound concentration: 200 nM): inactive: -0.401
- TEAD-luciferase reporter activity (compound concentration: 2 uM): inactive: 1.07
- TEAD-luciferase reporter activity (compound concentration: 10 uM): inactive: 1.32

SMILES: C/C(=N/C#N)NC1=CC(C)(C)Oc2ccc(C#N)cc21
- TEAD-luciferase reporter activity (compound concentration: 200 nM): inactive: -1.34
- TEAD-luciferase reporter activity (compound concentration: 2 uM): inactive: -0.0483
- TEAD-luciferase reporter activity (compound concentration: 10 uM): inactive: -1.94

SMILES: O=C(O)C1CN(CCCP(=O)(O)O)CCN1 (racemic)
- TEAD-luciferase reporter activity (compound concentration: 2 uM): inactive: 1.23

SMILES: CN(N=O)C(=O)NC(C=O)C(O)C(O)C(O)CO (configuration not stated) [streptozocin]
- TEAD-luciferase reporter activity (compound concentration: 200 nM): inactive: -1.98
- TEAD-luciferase reporter activity (compound concentration: 2 uM): inactive: 1.8
- TEAD-luciferase reporter activity (compound concentration: 10 uM): inactive: 0.493

SMILES: C=C(NC(=O)Cc1ccc(OC)cc1)C(=O)O
- TEAD-luciferase reporter activity (compound concentration: 200 nM): inactive: 0.191
- TEAD-luciferase reporter activity (compound concentration: 2 uM): inactive: 0.116
- TEAD-luciferase reporter activity (compound concentration: 10 uM): inactive: 1.78

SMILES: COc1cc(/C=C\c2ccc(OC)c(OP(=O)([O-])[O-])c2OP(=O)([O-])[O-])cc(OC)c1OC [combretastatin A-1 diphosphate]
- TEAD-luciferase reporter activity (compound concentration: 200 nM): inactive: -1.14
- TEAD-luciferase reporter activity (compound concentration: 10 uM): inactive: 0.4

SMILES: CC(C)NC(=O)Cn1c(-c2cccc(Cl)c2)nc2ccc(OCCCN3CCCCC3)cc2c1=O
- TEAD-luciferase reporter activity (compound concentration: 200 nM): inactive: 0.531
- TEAD-luciferase reporter activity (compound concentration: 2 uM): inactive: 0.36
- TEAD-luciferase reporter activity (compound concentration: 10 uM): inactive: 2.67

SMILES: CN1CCN(c2cc3c(cc2F)c(=O)c(C(=O)O)cn3-c2ccc(F)cc2)CC1 [Difloxacin hydrochloride]
- TEAD-luciferase reporter activity (compound concentration: 200 nM): inactive: -0.249
- TEAD-luciferase reporter activity (compound concentration: 2 uM): inactive: -0.0999
- TEAD-luciferase reporter activity (compound concentration: 10 uM): inactive: 1.74

SMILES: NC(=O)[C@H]1CN(CCCCC(c2ccc(F)cc2)c2ccc(F)cc2)CCN1CC(=O)Nc1c(Cl)cc(N)cc1Cl
- TEAD-luciferase reporter activity (compound concentration: 200 nM): inactive: -1.18
- TEAD-luciferase reporter activity (compound concentration: 2 uM): inactive: -1.29
- TEAD-luciferase reporter activity (compound concentration: 10 uM): inactive: 0.963

SMILES: CC(C)(C)c1nnc([C@H]2O[C@@H](n3cnc4c(Nc5ccc(Cl)cc5F)ncnc43)[C@H](O)[C@@H]2O)o1
- TEAD-luciferase reporter activity (compound concentration: 200 nM): active: 7.84
- TEAD-luciferase reporter activity (compound concentration: 2 uM): inactive: -0.811
- TEAD-luciferase reporter activity (compound concentration: 10 uM): inactive: -0.327
